This is one part of the list. Shown are side measurements of this screen, not its main read-out; they come without a call. The list favours compounds with an active or inconclusive main result. Potencies come from curve fits of mixed quality, noted in brackets.
Experiment: qHTS Assay for Lipid Storage Modulators in Drosophila S3 Cells;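 on cell number change: cells counted by Cell Tracker Red CMTPX staining in the red channel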
Settings: BODIPY lipid droplet fluorescence, 18-24 h; for cell number change: measured here: cell count max response, cells fed with added oleic acid
Procedure, shortened: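 Laser-scanning cytometry quantifies lipid droplet accumulation (500–530 nm total intensity; droplet/cell object ratio) in oleic acid-fed (400 uM added) Drosophila S3 cells treated with a concentration series. 20 uM Triacsin C defined 100% inhibition.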

[1] = measured here: lipid fluorescence (Fed channel) AC50, cells fed with added oleic acid
[2] = measured here: cell number channel AC50, cells fed with added oleic acid

SMILES | cell number change [%] | AC50 [1] | AC50 [2]
CC(Sc1cccc[n+]1[O-])c1ccccc1 (configuration not stated) | 0.529 | 29.1 µM [rising, single point] | 
CCCC1NC(=O)NC(C)=C1C(=O)OCC (configuration not stated) | -13.3 | 2.91 µM [falling, partial curve, poor fit] | 2.59 µM [falling, partial curve]
Cc1ccc(C(C(=O)NCc2ccccc2)N(C(=O)c2csnn2)c2cccc3ccccc23)o1 (configuration not stated) | -39.7 | 18.4 µM [falling, single point] | 18.4 µM [falling, single point]
C=CCOc1ccc(/C=C/C(=O)OCC(=O)N(C)C2CCS(=O)(=O)C2)cc1 (configuration not stated) |  | 0.206 µM [rising, full curve] | 
CCNC(=O)NC(=O)C(C)OC(=O)C1CCN(S(=O)(=O)c2ccccc2F)CC1 (configuration not stated) | 26.3 | 0.58 µM [falling, full curve, poor fit] | 
Cc1ccc(OCCCN2C(=O)C(=O)c3cc(C)ccc32)cc1 | 4.08 | 0.0517 µM [falling, full curve, poor fit] | 
O=C(C(O)c1ccccc1)N1N=C(c2ccccc2)CC1(O)C(F)(F)F (configuration not stated) | 9.12 |  | 
COc1ccc(NC(=O)C(=O)NCC(c2ccco2)N2CCc3ccccc3C2)cc1 (configuration not stated) | 40.3 | 8.2 µM [rising, partial curve] | 5.17 µM [rising, partial curve]
Brc1ccc(C2C3=C(Nc4ncnn42)c2ccccc2OC3c2ccncc2)cc1 (configuration not stated) | -4.16 | 0.651 µM [rising, partial curve, poor fit] | 1.84 µM [rising, partial curve, poor fit]
CN(CC(=O)Nc1cccc(F)c1)C(=O)/C=C/c1ccc(Br)s1 | -5.72 |  | 
COc1ccccc1N1CCN(C(=O)CCc2nnc3ccc(N4CCCC4)nn23)CC1 | -43.3 | 18.4 µM [falling, single point] | 32.6 µM [falling, single point]
COc1ccc(-c2cc(-c3cc(OC)ccc3O)[nH]n2)cc1 | -56.3 | 18.4 µM [falling, single point] | 29.1 µM [falling, single point]
c1cncc(C2Nc3ccccc3-c3nc4ccccc4n32)c1 (configuration not stated) | 45.1 |  | 0.0291 µM [rising, full curve, poor fit]
COC(=O)NNC(=S)Nc1cc(OC)ccc1OC | -28.2 |  | 0.82 µM [falling, full curve, poor fit]
O=C1C2CCCCN2C(=O)N1CCCCN1CCN(c2cccc(Br)c2)CC1 (configuration not stated) | -2.49 | 6.51 µM [falling, single point] | 
COc1cccc(CNC(=O)CCC2CCCN(C(=O)c3ccc(F)c(Cl)c3)C2)c1 (configuration not stated) | -31.7 | 29.1 µM [falling, single point] | 29.1 µM [falling, single point]
CCN(CC(=O)Nc1c(F)cccc1F)C(=O)c1cccc(-n2cccc2)c1 | 4.05 |  | 0.411 µM [falling, partial curve, poor fit]
N#Cc1c(C(F)(F)F)cc(-c2ccco2)nc1SCc1ccccn1 | -5.18 | 6.51 µM [falling, partial curve] | 0.92 µM [rising, full curve]
Cc1ccc2c(c1)N(CC(=O)NCCCN1CCN(C)CC1)C(=O)CO2 | 17.9 |  | 
CCOC(=O)C1CCCN(C(=O)c2ccc(S(=O)(=O)N3CCOCC3)cc2)C1 (configuration not stated) | -4.53 | 0.0058 µM [falling, full curve, poor fit] | 
Cc1cccc(-c2ncc(CN3CCC(CO)(CCCc4ccccc4)CC3)cn2)c1 | -47.8 | 25.9 µM [falling, partial curve, poor fit] | 25.9 µM [falling, single point]
COc1ccc(S(=O)(=O)N2CC(O)CC2C(=O)OCC(=O)Nc2ccc(Cl)cn2)cc1 (configuration not stated) | -26.1 | 0.326 µM [falling, full curve, poor fit] | 0.116 µM [falling, full curve, poor fit]
COc1cc(C(=O)NCC(=O)OCc2ccccc2Cl)cc(OC)c1OC | -36.4 |  | 
Cn1c(=O)c(=O)n(C)c2cc(S(=O)(=O)N3CCc4ccccc43)ccc21 | -1.19 | 1.84 µM [rising, partial curve] | 
Cc1ccc(CNS(=O)(=O)c2ccc3c(c2)CCN3C(=O)CCCC(=O)O)cc1 | 29.6 | 29.1 µM [rising, single point] | 
CC(C)c1ccc(/C=C/C2=NNC(=O)CC2)cc1 | -1.49 | 2.91 µM [rising, single point] | 

One compound at a time (already shown):
COc1cccc(CNC(=O)CCC2CCCN(C(=O)c3ccc(F)c(Cl)c3)C2)c1 (configuration not stated) in the list: cell number change [%]: -31.7; AC50 [1]: 29.1 µM [falling, single point]; AC50 [2]: 29.1 µM [falling, single point]
COC(=O)NNC(=S)Nc1cc(OC)ccc1OC in the list: cell number change [%]: -28.2; AC50 [2]: 0.82 µM [falling, full curve, poor fit]

Source: PubChem BioAssay AID2685 (National Center for Advancing Translational Sciences (NCATS), 2010)
